Measurements reported in PubChem BioAssay AID686937 (Drosophila RNAi Screening Center, 2013)

Purpose: 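Genes in the fly needed for secretion of protein constitutively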 (primary screen)
Cell system: Drosophila S2 cells expressing secreted horseradish peroxidase
Knock-down reagent: long dsRNA against Drosophila genes
Duration: about 5.5 days (5 days dsRNA, then 12 h reporter induction)
Treatment: reporter expression induced after 5 days of dsRNA, read 12 h later; inducer not stated
Measured: 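After 5 days of dsRNA and 12 h of reporter induction, medium peroxidase read by chemiluminescence and scored as per-plate z-score; higher values mean more reporter released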
Scale: z-score: higher = more reporter secreted into medium
The deposit covers about 23,000 reagents; below is an unselected part of those with a known target gene and a result. 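Reduced-secretion tags in replicate 1 do not always agree with the z-scores; no criterion for assigning the tags was given.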 The numbers tell different reagents against one gene apart. No sequences are given here. Not stated in the record: the amount of reagent.

CG18335
- z-score, replicate 1: 0.14
- z-score, replicate 2: 0.17

Nup154 (Nucleoporin 154kD)
- z-score, replicate 1: -0.84
- z-score, replicate 2: -0.45

CG14137
- z-score, replicate 1: 0.47
- z-score, replicate 2: 0.39

spaw (spacewatch)
- z-score, replicate 1: 0.14
- z-score, replicate 2: 0.02

ABCB7 (ATP binding cassette subfamily B member 7)
- z-score, replicate 1: 0.31
- z-score, replicate 2: 0.31

FANCI (Fanconi anemia complementation group I)
- z-score, replicate 1: 0.29
- z-score, replicate 2: 0.13

Rab2
- z-score, replicate 1: 0.16
- z-score, replicate 2: 0.07

CG17065
- z-score, replicate 1: 0.29
- z-score, replicate 2: 0.54

RluA-1 (RluA pseudouridine synthase 1) #1
- z-score, replicate 1: 0.01
- z-score, replicate 2: 0.14

RluA-1 (RluA pseudouridine synthase 1) #2
- z-score, replicate 1: 0.01
- z-score, replicate 2: 0.15

Tpc2
- z-score, replicate 1: 0.26
- z-score, replicate 2: 0.37

Or85b (Odorant receptor 85b)
- z-score, replicate 1: 0.47
- z-score, replicate 2: 0.43

CG18368
- z-score, replicate 1: 0.3
- z-score, replicate 2: 0.39

CG8301
- z-score, replicate 1: 0.29
- z-score, replicate 2: 0.52

tko (technical knockout)
- z-score, replicate 1: 0.08
- z-score, replicate 2: -0.65

CG7694
- z-score, replicate 1: 0.33
- z-score, replicate 2: 0.32

RabX5
- z-score, replicate 1: 0.42
- z-score, replicate 2: 0.29

PICK1 (Protein interacting with C kinase 1) #1
- z-score, replicate 1: 0.4
- z-score, replicate 2: 0.41

PICK1 (Protein interacting with C kinase 1) #2
- z-score, replicate 1: 0.37
- z-score, replicate 2: 0.43

CG15772
- z-score, replicate 1: 0.14
- z-score, replicate 2: -0.38

CG42544
- z-score, replicate 1: -0.28
- z-score, replicate 2: 0.26

CG16790
- z-score, replicate 1: 0.21
- z-score, replicate 2: 0.38

mey (morpheyus)
- z-score, replicate 1: 0.14
- z-score, replicate 2: 0.43

CG4892
- z-score, replicate 1: -0.52
- z-score, replicate 2: 0.19

CG12824
- z-score, replicate 1: 0.24
- z-score, replicate 2: 0.26

trio #1
- z-score, replicate 1: -0.02
- z-score, replicate 2: 0.31

trio #2
- z-score, replicate 1: 0.3
- z-score, replicate 2: -1.04

trio #3
- z-score, replicate 1: 0.53
- z-score, replicate 2: 0.42

CG18081
- z-score, replicate 1: 0.07
- z-score, replicate 2: 0.22

Had1 (beta Hydroxy acid dehydrogenase 1)
- z-score, replicate 1: 0.41
- z-score, replicate 2: 0.49

CG8908
- z-score, replicate 1: 0.24
- z-score, replicate 2: 0.39

CG17010
- z-score, replicate 1: 0.17
- z-score, replicate 2: 0.35

Cyp312a1 (Cytochrome P450 312a1)
- z-score, replicate 1: 0.11
- z-score, replicate 2: 0.13

CG30356
- z-score, replicate 1: -0.3

CG11927
- z-score, replicate 1: 0.34
- z-score, replicate 2: 0.32

CCT3 (Chaperonin containing TCP1 subunit 3)
- z-score, replicate 1: -0.05
- z-score, replicate 2: -0.04

CR42546 (pseudo)
- z-score, replicate 1: 0.16
- z-score, replicate 2: 0.3

Pdzd8 (PDZ domain containing 8)
- z-score, replicate 1: -0.26
- z-score, replicate 2: 0.45

Spec2 (retired record) #1
- z-score, replicate 1: 0.24
- z-score, replicate 2: 0.18

Spec2 (retired record) #2
- z-score, replicate 1: -0.17
- z-score, replicate 2: -0.25

Reformatted: 3 of the entries above
{"gene": "ABCB7 (ATP binding cassette subfamily B member 7)", "dsRNA no.": 1, "z-score, replicate 1": 0.31, "z-score, replicate 2": 0.31}
{"gene": "FANCI (Fanconi anemia complementation group I)", "dsRNA no.": 1, "z-score, replicate 1": 0.29, "z-score, replicate 2": 0.13}
{"gene": "Rab2", "dsRNA no.": 1, "z-score, replicate 1": 0.16, "z-score, replicate 2": 0.07}
